{
  "source": "paper doi:10.1101/2025.05.09.653063",
  "about": "(bioRxiv, 2025)",
  "molecules": {"B1": {"name": "His-tagged wild type PsmA (natural protein, Saccharolobus islandicus REY15A, UniProt C3MQ43 1-241, looked up)", "chain": "MAFGPAAMGYDRAITIFSPDGSLYQVDYAFEAVKKGWTAIGIKSKSGVVIASEKRKAQSLLDVDSIEKVFLIDDHVGCSFAGLASDGRVLIDYARNIALQHRLIYDEPVSIDYLTKSVADVKQMYTQHGGVRPFGVALVIAGIDKSVPKLYMTEPSGQYMPYQAVAIGQGYYTATEFLEKNYKEDLTIEDTILLALKALSATLKPNEKLTPNTVEIGYASTQTGLFLKMTSEDKNMYLQKL"}},
  "test_in_all_cases": "pull-down",
  "key": {"[1]": {"target": "T1, His-tagged PsmA S200D (Saccharolobus islandicus REY15A) (UniProt C3MQ43)", "T1 sequence": "B1 chain with S200D"}, "[2]": {"target": "T2, His-tagged wild type PsmA (Saccharolobus islandicus REY15A) (UniProt C3MQ43)", "T2 sequence": "B1 chain"}, "[3]": {"target": "T3, His-tagged PsmA T213E (Saccharolobus islandicus REY15A) (UniProt C3MQ43)", "T3 sequence": "B1 chain with T213E"}, "[4]": {"target": "proteasome assembly factor SiRe_1163, overexpressed in Sa. islandicus (Saccharolobus islandicus REY15A) (UniProt F0NEV0)"}, "[5]": {"target": "proteasome assembly factor SiRe_1724, overexpressed in Sa. islandicus (Saccharolobus islandicus REY15A) (UniProt F0NIK1)"}},
  "note": "Where a chain is given by its changes, count along the chain named. These are yes or no findings as the source states them, for the method shown. In cells and extracts the contact can be indirect. Binding can be weak; no strength is given. Sequences can lack the tags named with a protein.",
  "data": [
    {"molecule": "proteasome β subunit PsmB1 (SiRe_1237)", "values": [
      {"measurement": "binding", "setting": "[1]", "value": "binds"},
      {"measurement": "binding", "setting": "[2]", "value": "binds"},
      {"measurement": "binding", "setting": "[3]", "value": "binds"}
    ]},
    {"molecule": "B1", "values": [
      {"measurement": "binding", "setting": "[4]", "value": "binds"},
      {"measurement": "binding", "setting": "[5]", "value": "binds"}
    ]}
  ]
}
